Experimental data reported in the supplement of paper PMC8728848.
Some of the results follow.

Key:
Assay in all cases: glycan array binding signal (z-score within array); higher = stronger binding
Conditions in all cases: glycan notation: IUPAC condensed, linker removed; mutation: R276L
[1] = molecular target: Gal(b1-4)GlcNAc(b1-3)Gal(b1-4)GlcNAc(b1-2)Man(a1-3)[Gal(b1-4)GlcNAc(b1-3)Gal(b1-4)GlcNAc(b1-2)Man(a1-6)]Man(b1-4)GlcNAc(b1-4)[Fuc(a1-6)]GlcNAc
How it was run: (§1)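 Columns mapping to the same glycan were averaged after glycan names were converted to IUPAC-condensed notation. The data come from 3228 arrays in the Consortium for Functional Glycomics database, limited to those with an available protein sequence. Binding is reported as a within-array Z-score averaged across arrays of one protein sequence and across linkers.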

[2] = molecular target: Gal(b1-4)GlcNAc(b1-3)Gal(b1-4)GlcNAc(b1-2)[Gal(b1-4)GlcNAc(b1-3)Gal(b1-4)GlcNAc(b1-6)]Man(a1-6)[Gal(b1-4)GlcNAc(b1-3)Gal(b1-4)GlcNAc(b1-2)Man(a1-3)]Man(b1-4)GlcNAc(b1-4)GlcNAc
How it was run: as §1

[3] = molecular target: Gal(b1-4)GlcNAc(b1-3)Gal(b1-4)GlcNAc(b1-2)[Gal(b1-4)GlcNAc(b1-3)Gal(b1-4)GlcNAc(b1-6)]Man(a1-6)[Gal(b1-4)GlcNAc(b1-3)Gal(b1-4)GlcNAc(b1-2)Man(a1-3)]Man(b1-4)GlcNAc(b1-4)[Fuc(a1-6)]GlcNAc
How it was run: as §1

[4] = molecular target: Gal(b1-4)GlcNAc(b1-3)Gal(b1-4)GlcNAc(b1-3)Gal(b1-4)GlcNAc
How it was run: as §1

[5] = molecular target: Gal(b1-4)GlcNAc(b1-3)Gal(b1-4)GlcNAc(b1-3)Gal(b1-4)GlcNAc(b1-2)Man(a1-3)[Gal(b1-4)GlcNAc(b1-3)Gal(b1-4)GlcNAc(b1-3)Gal(b1-4)GlcNAc(b1-2)Man(a1-6)]Man(b1-4)GlcNAc(b1-4)GlcNAc
How it was run: as §1

[6] = molecular target: Gal(b1-4)GlcNAc(b1-3)Gal(b1-4)GlcNAc(b1-3)Gal(b1-4)GlcNAc(b1-2)Man(a1-3)[Gal(b1-4)GlcNAc(b1-3)Gal(b1-4)GlcNAc(b1-3)Gal(b1-4)GlcNAc(b1-2)Man(a1-6)]Man(b1-4)GlcNAc(b1-4)[Fuc(a1-6)]GlcNAc
How it was run: as §1

[7] = molecular target: Gal(b1-4)GlcNAc(b1-3)Gal(b1-4)GlcNAc(b1-3)Gal(b1-4)GlcNAc(b1-2)[Gal(b1-4)GlcNAc(b1-3)Gal(b1-4)GlcNAc(b1-3)Gal(b1-4)GlcNAc(b1-6)]Man(a1-6)[Gal(b1-4)GlcNAc(b1-3)Gal(b1-4)GlcNAc(b1-3)Gal(b1-4)GlcNAc(b1-2)Man(a1-3)]Man(b1-4)GlcNAc(b1-4)[Fuc(a1-6)]GlcNAc
How it was run: as §1

[8] = molecular target: Gal(b1-4)GlcNAc(b1-3)Gal(b1-4)GlcNAc(b1-3)Gal(b1-4)GlcNAc(b1-3)Gal(b1-4)GlcNAc(b1-2)Man(a1-3)[Gal(b1-4)GlcNAc(b1-3)Gal(b1-4)GlcNAc(b1-3)Gal(b1-4)GlcNAc(b1-3)Gal(b1-4)GlcNAc(b1-2)Man(a1-6)]Man(b1-4)GlcNAc(b1-4)GlcNAc
How it was run: as §1

[9] = molecular target: Gal(b1-4)GlcNAc(b1-3)Gal(b1-4)GlcNAc(b1-3)Gal(b1-4)GlcNAc(b1-3)Gal(b1-4)GlcNAc(b1-2)Man(a1-3)[Gal(b1-4)GlcNAc(b1-3)Gal(b1-4)GlcNAc(b1-3)Gal(b1-4)GlcNAc(b1-3)Gal(b1-4)GlcNAc(b1-2)Man(a1-6)]Man(b1-4)GlcNAc(b1-4)[Fuc(a1-6)]GlcNAc
How it was run: as §1

[10] = molecular target: Gal(b1-4)GlcNAc(b1-3)Gal(b1-4)GlcNAc(b1-3)Gal(b1-4)GlcNAc(b1-3)Gal(b1-4)GlcNAc(b1-2)[Gal(b1-4)GlcNAc(b1-3)Gal(b1-4)GlcNAc(b1-3)Gal(b1-4)GlcNAc(b1-3)Gal(b1-4)GlcNAc(b1-6)]Man(a1-6)[Gal(b1-4)GlcNAc(b1-3)Gal(b1-4)GlcNAc(b1-3)Gal(b1-4)GlcNAc(b1-3)Gal(b1-4)GlcNAc(b1-2)Man(a1-3)]Man(b1-4)GlcNAc(b1-4)[Fuc(a1-6)]GlcNAc
How it was run: as §1

[11] = molecular target: Gal(b1-4)GlcNAc(b1-3)Gal(b1-4)GlcNAc(b1-3)Gal(b1-4)GlcNAc(b1-3)Gal(b1-4)GlcNAc(b1-3)Gal(b1-4)GlcNAc(b1-2)Man(a1-3)[Gal(b1-4)GlcNAc(b1-3)Gal(b1-4)GlcNAc(b1-3)Gal(b1-4)GlcNAc(b1-3)Gal(b1-4)GlcNAc(b1-3)Gal(b1-4)GlcNAc(b1-2)Man(a1-6)]Man(b1-4)GlcNAc(b1-4)GlcNAc
How it was run: as §1

[12] = molecular target: Gal(b1-4)GlcNAc(b1-3)Gal(b1-4)GlcNAc(b1-3)Gal(b1-4)GlcNAc(b1-3)Gal(b1-4)GlcNAc(b1-3)Gal(b1-4)GlcNAc(b1-2)Man(a1-3)[Gal(b1-4)GlcNAc(b1-3)Gal(b1-4)GlcNAc(b1-3)Gal(b1-4)GlcNAc(b1-3)Gal(b1-4)GlcNAc(b1-3)Gal(b1-4)GlcNAc(b1-2)Man(a1-6)]Man(b1-4)GlcNAc(b1-4)[Fuc(a1-6)]GlcNAc
How it was run: as §1

[13] = molecular target: Gal(b1-4)GlcNAc(b1-3)Gal(b1-4)GlcNAc(b1-3)Gal(b1-4)GlcNAc(b1-3)Gal(b1-4)GlcNAc(b1-3)Gal(b1-4)GlcNAc(b1-2)[Gal(b1-4)GlcNAc(b1-3)Gal(b1-4)GlcNAc(b1-3)Gal(b1-4)GlcNAc(b1-3)Gal(b1-4)GlcNAc(b1-3)Gal(b1-4)GlcNAc(b1-6)]Man(a1-6)[Gal(b1-4)GlcNAc(b1-3)Gal(b1-4)GlcNAc(b1-3)Gal(b1-4)GlcNAc(b1-3)Gal(b1-4)GlcNAc(b1-3)Gal(b1-4)GlcNAc(b1-2)Man(a1-3)]Man(b1-4)GlcNAc(b1-4)[Fuc(a1-6)]GlcNAc
How it was run: as §1

[14] = molecular target: Gal(b1-4)GlcNAc(b1-3)Gal(b1-4)GlcNAc(b1-3)Gal(b1-4)GlcNAc(b1-3)Gal(b1-4)GlcNAc(b1-3)Gal(b1-4)GlcNAc(b1-3)Gal(b1-4)GlcNAc(b1-2)Man(a1-3)[Gal(b1-4)GlcNAc(b1-3)Gal(b1-4)GlcNAc(b1-3)Gal(b1-4)GlcNAc(b1-3)Gal(b1-4)GlcNAc(b1-3)Gal(b1-4)GlcNAc(b1-3)Gal(b1-4)GlcNAc(b1-2)Man(a1-6)]Man(b1-4)GlcNAc(b1-4)GlcNAc
How it was run: as §1

[15] = molecular target: Gal(b1-4)GlcNAc(b1-3)Gal(b1-4)GlcNAc(b1-3)GalNAc
How it was run: as §1

[16] = molecular target: Gal(b1-4)GlcNAc(b1-3)Gal(b1-4)GlcNAc(b1-3)[Gal(b1-4)GlcNAc(b1-3)Gal(b1-4)GlcNAc(b1-6)]GalNAc
How it was run: as §1

[17] = molecular target: Gal(b1-4)GlcNAc(b1-3)Gal(b1-4)GlcNAc(b1-6)[Gal(b1-3)]GalNAc
How it was run: as §1

[18] = molecular target: Gal(b1-4)GlcNAc(b1-3)Gal(b1-4)[Fuc(a1-3)]GlcNAc(b1-3)Gal(b1-4)[Fuc(a1-3)]GlcNAc
How it was run: as §1

[19] = molecular target: Gal(b1-4)GlcNAc(b1-3)GalNAc
How it was run: as §1

[20] = molecular target: Gal(b1-4)GlcNAc(b1-3)[Fuc(a1-3)GlcNAc(b1-6)]Gal(b1-4)Glc
How it was run: as §1

[21] = molecular target: Gal(b1-4)GlcNAc(b1-3)[Gal(b1-4)GlcNAc(b1-6)]Gal(b1-4)GlcNAc
How it was run: as §1

[22] = molecular target: Gal(b1-4)GlcNAc(b1-3)[GlcNAc(b1-6)]Gal(b1-4)GlcNAc
How it was run: as §1

[23] = molecular target: Gal(b1-4)GlcNAc(b1-6)Gal(b1-4)GlcNAc
How it was run: as §1

[24] = molecular target: Gal(b1-4)GlcNAc(b1-6)GalNAc
How it was run: as §1

[25] = molecular target: Gal(b1-4)GlcNAc(b1-6)[Gal(b1-3)]GalNAc
How it was run: as §1

[26] = molecular target: Gal(b1-4)GlcNAc(b1-6)[Gal(b1-4)GlcNAc(b1-3)]GalNAc
How it was run: as §1

Gal(b1-4)GlcNAc6P = molecular target: Gal(b1-4)GlcNAc6P
How it was run: as §1

Gal(b1-6)Gal = molecular target: Gal(b1-6)Gal
How it was run: as §1

Gal3S(b1-3)GalNAc = molecular target: Gal3S(b1-3)GalNAc
How it was run: as §1

Gal3S(b1-3)GlcNAc = molecular target: Gal3S(b1-3)GlcNAc
How it was run: as §1

[27] = molecular target: Gal3S(b1-3)[Fuc(a1-4)]GlcNAc
How it was run: as §1

Gal3S(b1-4)Glc = molecular target: Gal3S(b1-4)Glc
How it was run: as §1

Gal3S(b1-4)Glc6S = molecular target: Gal3S(b1-4)Glc6S
How it was run: as §1

Gal3S(b1-4)GlcNAc = molecular target: Gal3S(b1-4)GlcNAc
How it was run: as §1

[28] = molecular target: Gal3S(b1-4)[Fuc(a1-3)]Glc6S
How it was run: as §1

[29] = molecular target: Gal3S(b1-4)[Fuc(a1-3)]GlcNAc
How it was run: as §1

[30] = molecular target: Gal3S(b1-4)[Fuc(a1-3)]GlcNAc6S
How it was run: as §1

B1: SUN4P (Saccharomyces cerevisiae), P53616 (protein)
chain: MGSSHHHHHHSSGLVPRGSHNGSIYGDLADFSGPYEKFEDGTIPCGQFPSGQGVIPISWLDEGGWSGVENTDTSTGGSCKEGSYCSYACQPGMSKTQWPSDQPSDGRSIGGLLCKDGYLYRSNTDTDYLCEWGVDAAYVVSELSNDVAICLTDYPGTENMVIPTYVQAGDSLPLTVVDQDTYYTWQGLKTSAQYYVNNAGISVEDACVWGSSSSGVGNWAPLNFGAGSSDGVAYLSLIPNPNNGNALNFNVKIVAADDSSTVNGECIYENGSFSGGSDGCTVSVTAGKAKFVLYN
glycan array binding signal (z-score) [1]: 0.794
glycan array binding signal (z-score) [2]: -0.671
glycan array binding signal (z-score) [3]: -0.371
glycan array binding signal (z-score) [4]: 1.48
glycan array binding signal (z-score) [5]: 0.667
glycan array binding signal (z-score) [6]: 0.956
glycan array binding signal (z-score) [7]: 2.41
glycan array binding signal (z-score) [8]: -0.935
glycan array binding signal (z-score) [9]: 0.228
glycan array binding signal (z-score) [10]: 0.038
glycan array binding signal (z-score) [11]: 0.176
glycan array binding signal (z-score) [12]: 0.668
glycan array binding signal (z-score) [13]: 1.32
glycan array binding signal (z-score) [14]: 0.388
glycan array binding signal (z-score) [15]: 0.538
glycan array binding signal (z-score) [16]: 1.14
glycan array binding signal (z-score) [17]: 0.709
glycan array binding signal (z-score) [18]: 0.527
glycan array binding signal (z-score) [19]: 0.304
glycan array binding signal (z-score) [20]: -1.23
glycan array binding signal (z-score) [21]: -0.922
glycan array binding signal (z-score) [22]: -0.59
glycan array binding signal (z-score) [23]: -0.248
glycan array binding signal (z-score) [24]: -0.068
glycan array binding signal (z-score) [25]: 0.143
glycan array binding signal (z-score) [26]: 0.195
glycan array binding signal (z-score) (Gal(b1-4)GlcNAc6P): 0.505
glycan array binding signal (z-score) (Gal(b1-6)Gal): -0.764
glycan array binding signal (z-score) (Gal3S(b1-3)GalNAc): 0.37
glycan array binding signal (z-score) (Gal3S(b1-3)GlcNAc): -0.172
glycan array binding signal (z-score) [27]: -0.226
glycan array binding signal (z-score) (Gal3S(b1-4)Glc): -0.367
glycan array binding signal (z-score) (Gal3S(b1-4)Glc6S): 1.03
glycan array binding signal (z-score) (Gal3S(b1-4)GlcNAc): 0.02
glycan array binding signal (z-score) [28]: 0.693
glycan array binding signal (z-score) [29]: 0.234
glycan array binding signal (z-score) [30]: -0.491
